# This is one part of the list.
# Tests used:
# Assay in all cases: glycan array binding signal (z-score within array); higher = stronger binding
# Conditions in all cases: glycan notation: IUPAC condensed, linker removed
# [1] = molecular target: Fuc(a1-2)[GalNAc(a1-3)]Gal(b1-3)GlcNAc(b1-6)GalNAc
# Summary of the method: (§1)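 Arrays were curated from the Consortium for Functional Glycomics database, 3228 in total, and kept only where the protein sequence was available. Binding is expressed as a within-array Z-score. This score was averaged across arrays of the same protein sequence at different concentrations or buffers and across linkers, and negative values can be read as non-binding.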
# [2] = molecular target: Fuc(a1-2)[GalNAc(a1-3)]Gal(b1-4)Glc
# Summary of the method: as §1
# [3] = molecular target: Fuc(a1-2)[GalNAc(a1-3)]Gal(b1-4)GlcNAc
# Summary of the method: as §1
# [4] = molecular target: Fuc(a1-2)[GalNAc(a1-3)]Gal(b1-4)GlcNAc(b1-2)Man
# Summary of the method: as §1
# [5] = molecular target: Fuc(a1-2)[GalNAc(a1-3)]Gal(b1-4)GlcNAc(b1-2)Man(a1-3)[Fuc(a1-2)[GalNAc(a1-3)]Gal(b1-4)GlcNAc(b1-2)Man(a1-6)]Man(b1-4)GlcNAc(b1-4)GlcNAc
# Summary of the method: as §1
# [6] = molecular target: Fuc(a1-2)[GalNAc(a1-3)]Gal(b1-4)GlcNAc(b1-2)Man(a1-3)[Fuc(a1-2)[GalNAc(a1-3)]Gal(b1-4)GlcNAc(b1-2)Man(a1-6)]Man(b1-4)GlcNAc(b1-4)[Fuc(a1-6)]GlcNAc
# Summary of the method: as §1
# [7] = molecular target: Fuc(a1-2)[GalNAc(a1-3)]Gal(b1-4)GlcNAc(b1-3)Gal(b1-4)GlcNAc
# Summary of the method: as §1
# [8] = molecular target: Fuc(a1-2)[GalNAc(a1-3)]Gal(b1-4)GlcNAc(b1-3)Gal(b1-4)GlcNAc(b1-3)Gal(b1-4)GlcNAc
# Summary of the method: as §1
# [9] = molecular target: Fuc(a1-2)[GalNAc(a1-3)]Gal(b1-4)GlcNAc(b1-3)GalNAc
# Summary of the method: as §1
# [10] = molecular target: Fuc(a1-2)[GalNAc(a1-3)]Gal(b1-4)GlcNAc(b1-3)[Fuc(a1-2)[GalNAc(a1-3)]Gal(b1-4)GlcNAc(b1-6)]GalNAc
# Summary of the method: as §1
# [11] = molecular target: Fuc(a1-2)[GalNAc(a1-3)]Gal(b1-4)GlcNAc(b1-6)GalNAc
# Summary of the method: as §1
# [12] = molecular target: Fuc(a1-2)[GalNAc(a1-3)]Gal(b1-4)[Fuc(a1-3)]GlcNAc
# Summary of the method: as §1
# [13] = molecular target: Fuc(a1-2)[GalNAc(a1-3)]Gal(b1-4)[Fuc(a1-3)]GlcNAc(b1-3)GalNAc
# Summary of the method: as §1
# [14] = molecular target: Fuc(a1-2)[GalNAc(a1-4)]Gal(b1-4)GlcNAc
# Summary of the method: as §1
# [15] = molecular target: Fuc(a1-2)[GalNAc(b1-3)]Gal
# Summary of the method: as §1
# [16] = molecular target: Fuc(a1-3)GlcNAc
# Summary of the method: as §1
# [17] = molecular target: Fuc(a1-3)[Gal(b1-4)]Glc6S
# Summary of the method: as §1
# [18] = molecular target: Fuc(a1-3)[Gal(b1-4)]GlcNAc
# Summary of the method: as §1
# [19] = molecular target: Fuc(a1-3)[Gal(b1-4)]GlcNAc(b1-2)Man
# Summary of the method: as §1
# [20] = molecular target: Fuc(a1-3)[Gal(b1-4)]GlcNAc(b1-2)Man(a1-3)[Fuc(a1-3)[Gal(b1-4)]GlcNAc(b1-2)Man(a1-6)]Man(b1-4)GlcNAc(b1-4)GlcNAc
# Summary of the method: as §1
# [21] = molecular target: Fuc(a1-3)[Gal(b1-4)]GlcNAc(b1-2)Man(a1-3)[Fuc(a1-3)[Gal(b1-4)]GlcNAc(b1-2)Man(a1-6)]Man(b1-4)GlcNAc(b1-4)[Fuc(a1-6)]GlcNAc
# Summary of the method: as §1
# [22] = molecular target: Fuc(a1-3)[Gal(b1-4)]GlcNAc(b1-3)Gal(b1-3)[Fuc(a1-4)]GlcNAc
# Summary of the method: as §1
# [23] = molecular target: Fuc(a1-3)[Gal(b1-4)]GlcNAc(b1-3)Gal(b1-4)[Fuc(a1-3)]GlcNAc
# Summary of the method: as §1
# [24] = molecular target: Fuc(a1-3)[Gal(b1-4)]GlcNAc(b1-3)Gal(b1-4)[Fuc(a1-3)]GlcNAc(b1-3)Gal(b1-4)[Fuc(a1-3)]GlcNAc
# Summary of the method: as §1
# [25] = molecular target: Fuc(a1-3)[Gal(b1-4)]GlcNAc(b1-3)GalNAc
# Summary of the method: as §1
# [26] = molecular target: Fuc(a1-3)[Gal(b1-4)]GlcNAc(b1-6)GalNAc
# Summary of the method: as §1
# [27] = molecular target: Fuc(a1-3)[Gal(b1-4)]GlcNAc(b1-6)[Gal(b1-3)GlcNAc(b1-3)]Gal(b1-4)Glc
# Summary of the method: as §1
# [28] = molecular target: Fuc(a1-3)[Gal(b1-4)]GlcNAc6S
# Summary of the method: as §1
# [29] = molecular target: Fuc(a1-3)[Gal3S(b1-4)]Glc
# Summary of the method: as §1
# [30] = molecular target: Fuc(a1-3)[Gal3S(b1-4)]GlcNAc
# Summary of the method: as §1
# [31] = molecular target: Fuc(a1-3)[Gal3S(b1-4)]GlcNAc6S
# Summary of the method: as §1
# [32] = molecular target: Fuc(a1-3)[GalNAc(b1-4)]GlcNAc
# Summary of the method: as §1
# [33] = molecular target: Fuc(a1-3)[GalNAc(b1-4)]GlcNAc6S
# Summary of the method: as §1
# [34] = molecular target: Fuc(a1-4)GlcNAc
# Summary of the method: as §1
# [35] = molecular target: Fuc(b1-3)GlcNAc
# Summary of the method: as §1
# [36] = molecular target: Gal(a1-2)Gal
# Summary of the method: as §1
# [37] = molecular target: Gal(a1-3)Gal
# Summary of the method: as §1
# [38] = molecular target: Gal(a1-3)Gal(b1-3)GlcNAc
# Summary of the method: as §1
# [39] = molecular target: Gal(a1-3)Gal(b1-3)GlcNAc(b1-2)Man
# Summary of the method: as §1
# [40] = molecular target: Gal(a1-3)Gal(b1-3)GlcNAc(b1-2)Man(a1-3)[Gal(a1-3)Gal(b1-3)GlcNAc(b1-2)Man(a1-6)]Man(b1-4)GlcNAc(b1-4)GlcNAc
# Summary of the method: as §1
# [41] = molecular target: Gal(a1-3)Gal(b1-3)GlcNAc(b1-3)GalNAc
# Summary of the method: as §1
# [42] = molecular target: Gal(a1-3)Gal(b1-3)GlcNAc(b1-6)GalNAc
# Summary of the method: as §1
# [43] = molecular target: Gal(a1-3)Gal(b1-3)[Fuc(a1-4)]GlcNAc(b1-2)Man(a1-3)[Gal(a1-3)Gal(b1-3)[Fuc(a1-4)]GlcNAc(b1-2)Man(a1-6)]Man(b1-4)GlcNAc(b1-4)GlcNAc
# Summary of the method: as §1
# [44] = molecular target: Gal(a1-3)Gal(b1-4)Glc
# Summary of the method: as §1
# [45] = molecular target: Gal(a1-3)Gal(b1-4)GlcNAc
# Summary of the method: as §1
binder,measurement,setting,value
EUL D1A (Oryza sativa) (protein) MFGFGHHHNQAPAAPSDPNQIFKIFCRANENYCLTVRDSAVVLAPVNPKDEHQHWFKDMRFSTKVKDGEGMPAFALVNKATGLAVKHSLGQSHPVKLVPFNPEYEDASVLWTESKDVGKGFRCIRMVNNTRLNLDAFHGDKDHGGVRDGTTVVLWEWCKGDNQSWKILPWGPEAHSSSPGAATACTIGGVPVHTVRVFSAAGEDYCLTVRNGTACLAPKNPRDDYQHWIKDMRHSNKIRDEEGYPAFALVNKVTGEAIKHSTGQGHPVKLVPYNPEYQDESVLWTESKDVGKGFRCIRMVNNIYLNFDAFHGDKDHGGIHDGTEIVLWKWCEGDNQRWKILPWILEQKLISEEDLNSAVDHHHHHH,glycan array binding signal (z-score),[1],-0.533
same,glycan array binding signal (z-score),[2],1.02
same,glycan array binding signal (z-score),[3],-1.24
same,glycan array binding signal (z-score),[4],-0.522
same,glycan array binding signal (z-score),[5],0.177
same,glycan array binding signal (z-score),[6],-0.512
same,glycan array binding signal (z-score),[7],-1.06
same,glycan array binding signal (z-score),[8],0.956
same,glycan array binding signal (z-score),[9],0.622
same,glycan array binding signal (z-score),[10],-1.56
same,glycan array binding signal (z-score),[11],-0.238
same,glycan array binding signal (z-score),[12],-1.51
same,glycan array binding signal (z-score),[13],0.783
same,glycan array binding signal (z-score),[14],-0.759
same,glycan array binding signal (z-score),[15],-0.263
same,glycan array binding signal (z-score),[16],-0.688
same,glycan array binding signal (z-score),[17],1.6
same,glycan array binding signal (z-score),[18],-0.723
same,glycan array binding signal (z-score),[19],1.65
same,glycan array binding signal (z-score),[20],-1.11
same,glycan array binding signal (z-score),[21],0.635
same,glycan array binding signal (z-score),[22],-1.37
same,glycan array binding signal (z-score),[23],0.586
same,glycan array binding signal (z-score),[24],-0.849
same,glycan array binding signal (z-score),[25],-0.949
same,glycan array binding signal (z-score),[26],2.13
same,glycan array binding signal (z-score),[27],-0.827
same,glycan array binding signal (z-score),[28],-0.005
same,glycan array binding signal (z-score),[29],0.24
same,glycan array binding signal (z-score),[30],1.85
same,glycan array binding signal (z-score),[31],1.49
same,glycan array binding signal (z-score),[32],0.169
same,glycan array binding signal (z-score),[33],-0.319
same,glycan array binding signal (z-score),[34],0.048
same,glycan array binding signal (z-score),[35],0.076
same,glycan array binding signal (z-score),[36],-1.3
same,glycan array binding signal (z-score),[37],-0.038
same,glycan array binding signal (z-score),[38],-1.66
same,glycan array binding signal (z-score),[39],0.221
same,glycan array binding signal (z-score),[40],1.86
same,glycan array binding signal (z-score),[41],-0.23
same,glycan array binding signal (z-score),[42],0.418
same,glycan array binding signal (z-score),[43],1.51
same,glycan array binding signal (z-score),[44],-0.021
same,glycan array binding signal (z-score),[45],-0.8

# Nothing new here: an excerpt of the list.
binder,measurement,setting,value
EUL D1A (Oryza sativa) (protein) MFGFGHHHNQAPAAPSDPNQIFKIFCRANENYCLTVRDSAVVLAPVNPKDEHQHWFKDMRFSTKVKDGEGMPAFALVNKATGLAVKHSLGQSHPVKLVPFNPEYEDASVLWTESKDVGKGFRCIRMVNNTRLNLDAFHGDKDHGGVRDGTTVVLWEWCKGDNQSWKILPWGPEAHSSSPGAATACTIGGVPVHTVRVFSAAGEDYCLTVRNGTACLAPKNPRDDYQHWIKDMRHSNKIRDEEGYPAFALVNKVTGEAIKHSTGQGHPVKLVPYNPEYQDESVLWTESKDVGKGFRCIRMVNNIYLNFDAFHGDKDHGGIHDGTEIVLWKWCEGDNQRWKILPWILEQKLISEEDLNSAVDHHHHHH,glycan array binding signal (z-score),[5],0.177
same,glycan array binding signal (z-score),[6],-0.512
same,glycan array binding signal (z-score),[7],-1.06
same,glycan array binding signal (z-score),[8],0.956
same,glycan array binding signal (z-score),[9],0.622
same,glycan array binding signal (z-score),[10],-1.56
same,glycan array binding signal (z-score),[11],-0.238
same,glycan array binding signal (z-score),[12],-1.51
same,glycan array binding signal (z-score),[13],0.783

# From the supplement of paper PMC8728848
